Reference: patent US20210347816A1
These are yes or no findings as the source states them, for the method shown. Some results given as binding are weak or reduced against the parent protein; the word gives no strength.

target: kappa light chains of human antibodies (human) (UniProt P0DOX7); assay: ELISA screening of VHH clones on human antibodies

Binder	binding
SEQ ID NO 7 (VHH) VHH: QVQLQESGGGLVQAGGSLRLSCVASGSIFSVDIMYWYRQAPGKQRERVGSMYSDGTTTYVDSVKGRFTISRGDSTDNAKRITYLQMNNLQPEDTAVYYCAAWAGSFYWGSGTQVTVSS	binds
SEQ ID NO 8 (VHH) VHH: QVQLQDSGGGLVQAGGSLRLSCAASGRTFSGYSVAWFRQVPGKERELVASINRSGDNTYIEDSVKGRFTISTDNTKSTIYLQLNALKPEDTAVYYCAAPYGLGRYDSWGQGTQVTVSS	binds
SEQ ID NO 9 (VHH) VHH: QVQLQESGGGLVQAGGSLRLSCVASGSIFSVDIMYWYRQAPGKQRERVASMFSDGTTTYVDSVKGRFTISRGDSTDNAKRITYLQMNSLQPEDTAVYYCAAWAGSFYWGQGTQVTVSS	binds
SEQ ID NO 10 (VHH) VHH: QVQLQDSGGGLVQAGGSLRLSCAASSRTFSVYTVAWFRQTPGGKEREFVAQINWNGDSTNYADSVKGRFTVSRDNVKNTVFLQMSTLKPEDTAVYYCAAGSNWGQGTQVTVSS	binds
SEQ ID NO 11 (VHH) VHH: QVQLQDSGGGLVQAGGSLRLSCAASGRIFSTHTMAWFRQAPGQEREFVSSISWNGAVTNYLDSVKGRFTISKDNAKNTVYLQMNSLKPEDTAVYYCAAGRNWGQGTQVTVSS	binds
SEQ ID NO 12 (VHH) VHH: QVQLQESGGGLVQAGGSLRLSCAASGRTFRNYAMAWFRQAPGKEREFVAVIRRGGGDTYYSDSAEGRFTISRDNAKNTVYLQMNNLKPEDTAVYYCAADVSDDNTGKYDYWGQGTQVTVSS	binds
SEQ ID NO 13 (VHH) VHH: QVQLQESGGGLVQAGGSLRLSCAASGRTSSIHLMAWFRQAPGKEREFLASIIWTGGTTYYAGTTFYGDSAEGRFTISNDNARNTGYLQMNSLKPEDTAVYYCAATSLVNPTRYDYWGQGTQVTVSS	binds
SEQ ID NO 14 (VHH) VHH: QVQLQESGGGLVQAGGSLRLSCAASGRTSSIHLMAWFRQAPGKEREFVASIIWTGGTTYYAGTTFYGDSAEGRFTISNDNARNTGYLQMNSLKPEDTAVYYCAATSLENPTRYDYWGQGTQVTVSS	binds
SEQ ID NO 2 (VHH) VHH: QVQLQESGGGLVQAGGSLRLSCEATGLTFSGVAMAWFRQAPGKEREFVAIIRWSGSTTYYSDSAKGRFTISRDNAKNTVYLQMNSLKPEDTAVYYCAADPSDRFGEYDYWGRGTQVTVSS	binds
SEQ ID NO 6 (VHH) VHH: QVQLQESGGGLVQAGGSLRLSCAASDRYFSSHTMAWFRQAPGKEREFVARVDWSGGSTEYADSVKGRFTISKDNAKNTVYLQMDSLKPEDAAVYYCAAGPYWGQGTQVTVSS	binds
